Article doi:10.1101/2020.06.18.159178

B1: AtSIZ1-cMyc(10x) (protein, UniProt Q680Q4 1-884)
chain: MDLEANCKEKLSYFRIKELKDVLTQLGLSKQGKKQELVDRILTLLSDEQAARLLSKKNTVAKEAVAKLVDDTYRKMQVSGASDLASKGQVSSDTSNLKVKGEPEDPFQPEIKVRCVCGNSLETDSMIQCEDPRCHVWQHVGCVILPDKPMDGNPPLPESFYCEICRLTRADPFWVTVAHPLSPVRLTATTIPNDGASTMQSVERTFQITRADKDLLAKPEYDVQAWCMLLNDKVLFRMQWPQYADLQVNGVPVRAINRPGGQLLGVNGRDDGPIITSCIRDGVNRISLSGGDVRIFCFGVRLVKRRTLQQVLNLIPEEGKGETFEDALARVRRCIGGGGGDDNADSDSDIEVVADFFGVNLRCPMSGSRIKVAGRFLPCVHMGCFDLDVFVELNQRSRKWQCPICLKNYSVEHVIVDPYFNRITSKMKHCDEEVTEIEVKPDGSWRVKFKRESERRELGELSQWHAPDGSLCPSAVDIKRKMEMLPVKQEGYSDGPAPLKLGIRKNRNGIWEVSKPNTNGLSSSNRQEKVGYQEKNIIPMSSSATGSGRDGDDASVNQDAIGTFDFVANGMELDSISMNVDSGYNFPDRNQSGEGGNNEVIVLSDSDDENDLVITPGPAYSGCQTDGGLTFPLNPPGIINSYNEDPHSIAGGSSGLGLFNDDDEFDTPLWSFPSETPEAPGFQLFRSDADVSGGLVGLHHHSPLNCSPEINGGYTMAPETSMASVPVVPGSTGRSEANDGLVDNPLAFGRDDPSLQIFLPTKPDASAQSGFKNQADMSNGLRSEDWISLRLGDSASGNHGDPATTNGINSSHQMSTREGSMDTTTETASLLLGMNDSRQDKAKKQRSDNPFSFPRQKRSNNEQDHQTRHRSLNKICIILCAGKN
B2: full-length AtSIZ1 (Arabidopsis thaliana SIZ1), yeast two-hybrid prey (protein, UniProt Q680Q4 1-884)
chain: B1 chain

Experiments:
[1] = target: GFP-CRN83_152 (Phytophthora capsici) (UniProt P0CV73); assay: co-IP
[2] = target: GFP-Mp64 (Myzus persicae); assay: co-IP
[3] = target: Myzus persicae effector Mp64, yeast two-hybrid bait (Myzus persicae); assay: two-hybrid

Row | Binder | binding [1] | binding [2] | binding [3]
1 | B1 | binds weakly | binds | 
2 | B2 |  |  | binds

These are yes or no findings as the source states them, for the method shown. Binding can be weak; no strength is given. For part of these data: Binding seen in cells or lysates may run through a third protein. For part of these data: Tags and fused reporters may be left off the sequences shown.
